Reference: article PMC10649126
For at least one entry, the source does not settle the construct or the ends of the probe.

Test system: GST-AeHSFA2b (Actinidia eriantha)
Experiment: EMSA
Details: cold probe competition 0x-50x reduced the shift; Chemiluminescent EMSA Kit (Beyotime), manufacturer's instructions; pH and temperature not stated; recombinant protein; protein details: GST (pGEX-4T-1, N-terminal by vector)

Question: Does “GAGGAAACTTGAAGCTTCAAGAGGCGGT (double strand) [AeRFS4 promoter HSE probe (AeHSFA2b-EMSA-probe)]” bind?
Answer: Result: binds
